Assay results reported in PMC2929220.
Like-named read-outs stand apart in the source and are kept apart here. These are yes or no findings as the source states them, for the method shown. For some assays here: In cells and extracts the contact can be indirect. Some results given as binding are weak or reduced against the parent protein; the word gives no strength.

By UniProt entry, the sequences of proteins in these tests, tags left out. Where a name states a change or a piece, a line headed by the entry shows the natural chain unless it says otherwise. Residues count along the entry.
UniProt Q14974: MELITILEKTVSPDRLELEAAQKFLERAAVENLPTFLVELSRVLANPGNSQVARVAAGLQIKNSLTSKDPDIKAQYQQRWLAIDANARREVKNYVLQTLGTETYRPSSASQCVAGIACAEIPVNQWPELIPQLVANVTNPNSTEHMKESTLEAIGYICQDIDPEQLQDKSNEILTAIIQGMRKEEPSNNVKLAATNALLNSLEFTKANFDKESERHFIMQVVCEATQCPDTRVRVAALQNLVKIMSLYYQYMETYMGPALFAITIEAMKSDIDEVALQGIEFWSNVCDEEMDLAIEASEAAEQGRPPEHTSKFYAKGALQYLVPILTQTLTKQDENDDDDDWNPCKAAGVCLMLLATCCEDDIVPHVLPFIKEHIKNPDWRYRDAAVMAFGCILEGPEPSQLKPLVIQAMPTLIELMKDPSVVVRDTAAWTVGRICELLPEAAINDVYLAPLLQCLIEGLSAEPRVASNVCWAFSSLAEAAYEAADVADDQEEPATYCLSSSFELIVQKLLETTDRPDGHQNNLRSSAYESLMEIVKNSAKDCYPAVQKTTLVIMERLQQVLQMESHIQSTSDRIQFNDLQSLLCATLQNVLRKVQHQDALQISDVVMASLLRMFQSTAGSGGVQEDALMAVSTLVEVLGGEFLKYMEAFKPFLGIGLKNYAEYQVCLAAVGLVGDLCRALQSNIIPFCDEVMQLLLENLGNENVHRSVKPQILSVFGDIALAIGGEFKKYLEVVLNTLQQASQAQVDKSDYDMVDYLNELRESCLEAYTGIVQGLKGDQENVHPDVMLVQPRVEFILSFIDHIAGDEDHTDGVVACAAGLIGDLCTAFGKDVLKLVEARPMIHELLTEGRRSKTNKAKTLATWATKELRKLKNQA
UniProt A9QM74: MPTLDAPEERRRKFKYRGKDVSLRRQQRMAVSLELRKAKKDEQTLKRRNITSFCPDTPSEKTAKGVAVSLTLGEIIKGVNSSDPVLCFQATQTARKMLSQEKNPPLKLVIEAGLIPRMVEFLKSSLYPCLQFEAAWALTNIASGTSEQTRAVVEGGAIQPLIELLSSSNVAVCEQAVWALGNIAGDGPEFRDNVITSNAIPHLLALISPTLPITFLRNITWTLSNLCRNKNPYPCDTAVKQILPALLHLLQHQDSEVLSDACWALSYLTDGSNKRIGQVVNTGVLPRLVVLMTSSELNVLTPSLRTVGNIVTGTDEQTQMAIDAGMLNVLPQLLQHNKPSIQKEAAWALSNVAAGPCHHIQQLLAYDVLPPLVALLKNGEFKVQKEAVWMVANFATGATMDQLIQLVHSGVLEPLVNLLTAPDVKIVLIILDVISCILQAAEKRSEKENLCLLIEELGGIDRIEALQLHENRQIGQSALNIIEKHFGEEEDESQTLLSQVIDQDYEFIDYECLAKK
GST fusion of the IBB domain from KPNA7: residues 1-57 of A9QM74
UniProt O00629: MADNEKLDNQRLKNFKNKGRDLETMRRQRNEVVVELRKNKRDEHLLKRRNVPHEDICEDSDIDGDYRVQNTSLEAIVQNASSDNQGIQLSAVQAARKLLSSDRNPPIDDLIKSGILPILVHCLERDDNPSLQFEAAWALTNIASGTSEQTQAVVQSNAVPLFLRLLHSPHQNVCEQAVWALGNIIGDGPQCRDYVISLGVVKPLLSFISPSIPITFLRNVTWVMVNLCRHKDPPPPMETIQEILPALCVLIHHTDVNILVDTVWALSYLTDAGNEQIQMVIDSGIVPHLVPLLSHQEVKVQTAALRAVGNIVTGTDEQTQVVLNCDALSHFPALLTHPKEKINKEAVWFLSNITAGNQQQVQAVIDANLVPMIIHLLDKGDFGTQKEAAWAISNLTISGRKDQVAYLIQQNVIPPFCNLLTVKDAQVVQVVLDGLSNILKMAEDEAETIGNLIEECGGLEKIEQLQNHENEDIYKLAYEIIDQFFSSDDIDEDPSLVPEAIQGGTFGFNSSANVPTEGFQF
UniProt P52294: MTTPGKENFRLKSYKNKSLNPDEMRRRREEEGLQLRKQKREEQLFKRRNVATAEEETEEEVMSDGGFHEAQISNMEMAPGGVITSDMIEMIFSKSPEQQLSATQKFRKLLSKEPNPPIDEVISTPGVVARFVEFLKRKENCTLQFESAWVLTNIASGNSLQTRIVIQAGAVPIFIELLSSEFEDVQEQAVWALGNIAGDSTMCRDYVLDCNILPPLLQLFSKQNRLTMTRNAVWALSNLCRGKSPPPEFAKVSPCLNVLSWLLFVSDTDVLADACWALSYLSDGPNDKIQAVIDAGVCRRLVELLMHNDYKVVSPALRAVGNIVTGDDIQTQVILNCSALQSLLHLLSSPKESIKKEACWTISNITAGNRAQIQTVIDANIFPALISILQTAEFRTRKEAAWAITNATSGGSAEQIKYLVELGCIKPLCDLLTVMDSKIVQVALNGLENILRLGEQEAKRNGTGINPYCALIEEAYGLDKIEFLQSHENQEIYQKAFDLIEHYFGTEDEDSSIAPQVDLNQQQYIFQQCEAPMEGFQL
UniProt O15131: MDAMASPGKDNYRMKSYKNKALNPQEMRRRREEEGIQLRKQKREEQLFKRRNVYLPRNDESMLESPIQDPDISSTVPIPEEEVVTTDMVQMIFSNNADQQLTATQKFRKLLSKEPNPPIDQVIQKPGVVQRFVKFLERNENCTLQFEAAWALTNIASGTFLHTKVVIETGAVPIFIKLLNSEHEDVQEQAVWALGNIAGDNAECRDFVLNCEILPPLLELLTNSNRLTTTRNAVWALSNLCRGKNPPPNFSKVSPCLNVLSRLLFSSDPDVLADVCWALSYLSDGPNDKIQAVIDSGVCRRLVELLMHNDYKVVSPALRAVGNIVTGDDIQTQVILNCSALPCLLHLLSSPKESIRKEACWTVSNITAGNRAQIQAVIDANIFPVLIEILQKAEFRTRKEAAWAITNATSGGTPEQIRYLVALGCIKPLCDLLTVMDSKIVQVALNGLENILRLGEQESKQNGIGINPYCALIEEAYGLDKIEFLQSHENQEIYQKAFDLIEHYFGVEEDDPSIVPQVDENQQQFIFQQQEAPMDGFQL
UniProt O00505: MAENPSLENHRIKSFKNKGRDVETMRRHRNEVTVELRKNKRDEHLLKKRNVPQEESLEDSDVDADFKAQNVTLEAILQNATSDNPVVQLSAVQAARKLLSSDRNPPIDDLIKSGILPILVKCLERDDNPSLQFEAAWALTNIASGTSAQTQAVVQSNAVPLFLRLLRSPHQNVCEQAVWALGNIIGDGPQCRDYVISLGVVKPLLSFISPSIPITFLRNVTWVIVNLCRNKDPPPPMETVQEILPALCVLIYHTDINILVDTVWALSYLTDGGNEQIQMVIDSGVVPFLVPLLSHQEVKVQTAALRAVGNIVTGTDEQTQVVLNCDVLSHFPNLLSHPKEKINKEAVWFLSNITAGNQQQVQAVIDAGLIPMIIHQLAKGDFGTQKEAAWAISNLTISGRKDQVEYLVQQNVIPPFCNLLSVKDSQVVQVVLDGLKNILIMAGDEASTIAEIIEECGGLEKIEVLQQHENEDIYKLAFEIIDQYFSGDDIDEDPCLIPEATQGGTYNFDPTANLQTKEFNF

Experiments:
[1] = target: GST-importin β (UniProt Q14974)
[2] = target: GST-importin β (UniProt Q14974); remark: listed apart in the source
[3] = target: GST fusion of the IBB domain from KPNA7 (human) (UniProt A9QM74); assay: pull-down; preformed GST-IBB-importin β complexes on glutathione beads, RanQ69L-GTP (15 μM) added afterwards; bound and eluted fractions by semi-quantitative immunoblotting (IRDye secondary antibody, Odyssey); both purified
[4] = target: GST fusion of the IBB domain from KPNA7 (human) (UniProt A9QM74); assay: pull-down; GST-IBB domains immobilised on glutathione beads; His-tagged recombinant importin β (1 μM) added without or with RanQ69L-GTP (15 μM) in the binding reaction; bound fractions immunoblotted for importin β; both purified

binding [1]	Substance	further results
binds weakly	KPNA4 (from UniProt O00629 1-521)	
	Karyopherin α7 (KPNA7) (from UniProt A9QM74 1-516)	binding [2]: binds
binds weakly	KPNA6 (from UniProt O60684 1-536)	
binds weakly	KPNA1 (from UniProt P52294 1-538)	
binds weakly	KPNA5 (from UniProt O15131 1-539)	
binds weakly	KPNA3 (from UniProt O00505 1-521)	
	His-tagged, recombinant importin β (from UniProt Q14974 1-876)	binding [3]: binds; binding [4]: binds
